Laboratory results from publication PMC11062913.
These are yes or no findings as the source states them, for the method shown. Binding calls can cover weak binding; strength is not graded here.

Target: Integrator subunit INTS3 (human) (UniProt Q68E01)
Assay: cryo-EM structure; post-termination complex (Integrator–PP2A–SOSS–CTD), a class of particles from the PEC–Integrator–PP2A–SOSS sample; glycerol-gradient peak cross-linked with 0.2% glutaraldehyde; 3.7 Å; both purified

- binding: binds
B1: INIP (protein, UniProt Q9NRY2-1 1-104)
chain: MAANSSGQGFQNKNRVAILAELDKEKRKLLMQNQSSTNHPGASIALSRPSLNKDFRDHAEQQHIAAQQKAALQHAHAHSSGYFITQDSAFGNLILPVLPRLDPE
